# The list shows a part of the results. Further columns of the screen follow, without active or inactive calls. Compounds called inactive in the main read-out are mostly missing here. Words in brackets tell the shape of the fitted curve; partial curves, single points and poor fits give uncertain potencies.
# Assay: qHTS Assay for Lipid Storage Modulators in Drosophila S3 Cells;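 for cell number change: cells counted by Cell Tracker Red CMTPX staining in the red channel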
# Details: BODIPY lipid droplet fluorescence, 18-24 h; for cell number change: measured here: cell count max response, cells fed with added oleic acid
# Summary of the method: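 Laser-scanning cytometry quantifies lipid droplet accumulation (500–530 nm total intensity; droplet/cell object ratio) in oleic acid-fed (400 uM added) Drosophila S3 cells treated with a concentration series. 20 uM Triacsin C defined 100% inhibition.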
# [1] = measured here: lipid fluorescence (Fed channel) AC50, cells fed with added oleic acid
# [2] = measured here: cell number channel AC50, cells fed with added oleic acid
SMILES,cell number change [%],AC50 [1],AC50 [2]
CC(C)(CN=C1NS(=O)(=O)c2ccccc21)CNC(=O)CN1C(=O)c2ccccc2C1=O,-10.4,"0.00411 µM [rising, full curve, poor fit]",
Cc1cc(=O)oc(C)c1C(=O)OCC(=O)c1ccc2ccccc2c1,,,"6.51 µM [rising, single point]"
Cc1ccccc1NC(=O)Cn1cnc2c(oc3ccccc32)c1=O,34.2,"6.51 µM [rising, partial curve, poor fit]","0.0517 µM [rising, full curve, poor fit]"
COc1ccccc1-c1c(C)oc2c(CN3CCCC(C)C3)c(O)ccc2c1=O (stereo not drawn),8.33,,
CCCCC(CC)CNC(=O)c1[nH]c(C)c(C(C)=O)c1C (stereo not drawn),-34.6,,"16.4 µM [falling, single point]"
Cn1/c(=N\NC(=O)c2ccccc2Cl)sc2ccccc21,6.61,"0.411 µM [falling, single point]","7.31 µM [rising, partial curve, poor fit]"
CC(C)(C)NC(=O)CSc1nc(-c2ccccc2)c(-c2ccccc2)[nH]1,-34.7,,
CC1=C(C(=O)Nc2ccccc2C)C(c2cccs2)NC(=S)N1 (stereo not drawn),6.03,"3.66 µM [rising, single point]",
COCc1cc(C)nc(SCc2ccc(Cl)cc2)c1C#N,,"29.1 µM [falling, single point]",
CC(C)CN=Cc1c(O)c([N+](=O)[O-])cc2oc3c(c12)CCCC3,-36.5,,"29.1 µM [falling, single point]"
O=C(CSc1nccc(=O)[nH]1)N1CCc2ccccc2C1,19.9,"6.51 µM [falling, single point]",
O=S(=O)(c1ccc(F)cc1)N1CCN(C(=S)NCc2ccccc2)CC1,,"0.092 µM [falling, single point]","0.103 µM [falling, single point]"
O=C(Nc1ccccc1)Nc1ccc(Br)c(Cl)c1,-46.4,"25.9 µM [falling, single point]","32.6 µM [falling, single point]"
CCOC(=O)NC(=O)CN1C(=O)NC2(CCc3ccccc32)C1=O (stereo not drawn),0.952,"0.206 µM [rising, single point]",
Cc1ccc(C(=O)OCCN2CCN(c3ncc(C(F)(F)F)cc3Cl)CC2)cc1,-5.13,"3.66 µM [falling, single point]",
FC(F)(F)c1ccccc1/C=N/n1c(COc2ccccc2)n[nH]c1=S,-16.7,"13 µM [rising, partial curve]",
CCOc1ccc(OCCOC(=O)CN2C(=O)NC3(CCCC3)C2=O)cc1,-25,,"1.64 µM [rising, partial curve]"
Cc1ccccc1C(=O)N1CCC(C(=O)OCc2nc(N)nc(Nc3ccccc3)n2)CC1,-3.13,"6.51 µM [rising, single point]",
CC(=O)Nc1ccc(-c2csc(Nc3ccc(Cl)cn3)n2)cc1,93.9,"3.26 µM [rising, full curve]","2.59 µM [rising, full curve]"
CC(C(=O)O)C1SC(=O)NC1=O (stereo not drawn),-4.93,"20.6 µM [falling, partial curve]",

# Among those listed so far, two contain a furan ring, fused or not.
SMILES,cell number change [%],AC50 [1],AC50 [2]
Cc1ccccc1NC(=O)Cn1cnc2c(oc3ccccc32)c1=O,34.2,"6.51 µM [rising, partial curve, poor fit]","0.0517 µM [rising, full curve, poor fit]"
CC(C)CN=Cc1c(O)c([N+](=O)[O-])cc2oc3c(c12)CCCC3,-36.5,,"29.1 µM [falling, single point]"

# Next structures

SMILES,cell number change [%],AC50 [1],AC50 [2]
COc1ccc(C2CC(c3ccc4ccccc4c3)=NN2C(=O)CNC2CCCCC2)cc1 (stereo not drawn),-19,,"0.00461 µM [rising, full curve, poor fit]"
COc1ccc(Cc2noc(-c3ccc([N+](=O)[O-])cc3)n2)cc1OC,5.12,,"3.26 µM [rising, single point]"
Cc1ccc(-c2nc(CSCC(=O)Nc3cc(C)on3)c(C)o2)cc1,20.5,"0.461 µM [rising, full curve]",
CCOc1ccc(CCNC(=O)COC(=O)c2cc(S(=O)(=O)N3CCOCC3)ccc2F)cc1OCC,-6.52,"29.1 µM [falling, single point]",
CCCn1c(C)cc(C(=O)CSc2nc3nc(C)cc(C)n3n2)c1C,19.7,"29.1 µM [rising, single point]",
COc1ccc(/C=C(/NC(=O)c2ccco2)C(=O)N2CCCCCC2)cc1OC,-0.668,"25.9 µM [rising, single point]",
CC(=O)N1CC(C)Sc2ccc(S(=O)(=O)NCCc3ccc(C)cc3)cc21 (stereo not drawn),,"3.26 µM [falling, full curve]",
CCS(=O)(=O)c1ccc(O)c(NC(=O)NC2CCCCC2)c1,-18.6,"2.06 µM [falling, full curve, poor fit]",
COc1ccc(C(=O)NCCCNC(=O)c2cccnc2)cc1OC,-4.76,"10.3 µM [falling, partial curve, poor fit]",
N#CC(=C1CCCC1)c1nc(-c2ccccc2O)cs1,41,,"10.3 µM [rising, partial curve]"
N#CCSc1nc2[nH]ncc2c(=O)n1-c1ccccc1Br,20.8,"0.517 µM [rising, full curve, poor fit]","1.46 µM [rising, full curve, poor fit]"
COc1ccc(-c2[nH]c(-c3ccc(C)cc3)nc2SCC(=O)NC2CCCC2)cc1,-18.7,,
CC1N(C(=O)N2CCOCC2)CCN1S(=O)(=O)c1cccc(C(F)(F)F)c1 (stereo not drawn),4.17,,
Fc1ccc(-n2c(CN3CCCCC3)n[nH]c2=S)cc1,,"0.58 µM [falling, single point]",
COCc1nnc(NC(=O)CCc2ccc(OC)cc2)s1,11.9,,
CC12CCC(=O)N1C(C(=O)N1CCN(S(=O)(=O)c3cccc(Cl)c3)CC1)CS2 (stereo not drawn),43.8,,"29.1 µM [rising, single point]"
CCOC(=O)c1cc(-c2ccccc2C)nn1CC1CC(c2ccc(OC)cc2)=NO1 (stereo not drawn),-45.8,,"29.1 µM [falling, partial curve, poor fit]"
COc1ccc(NC(=O)CC(c2ccc(F)cc2)c2ccc(OC(C)C)cc2)cc1 (stereo not drawn),-0.785,"0.13 µM [rising, full curve, poor fit]",
CCO/C(C)=N/n1c2nc3ccccc3nc2c2c(=O)n(C3CCCC3)c(C)nc21,24.5,,
CCN(CCCNC(=O)CN1C(=O)COc2ccc(S(=O)(=O)N3CCC(C)CC3)cc21)Cc1ccccc1,0.917,"0.651 µM [falling, single point]",

SMILES,cell number change [%],AC50 [1],AC50 [2]
CCOc1ccccc1NC(=S)NC(=O)C1CC1,,"3.26 µM [falling, partial curve, poor fit]",
COc1ccc(CNC(=O)C2CCN(c3nc(-c4ccccc4)nc4c3CCC4)CC2)cc1,3.25,"29.1 µM [falling, single point]",
O=C(O)c1nc(N2CCCCC2)ncc1Cl,-43.5,"14.6 µM [falling, partial curve]","16.4 µM [falling, partial curve]"
CCCc1nc2oc3cc(OC)ccc3c(=O)c2c(=O)n1CCc1ccccc1,29.9,"0.461 µM [rising, full curve]",
COCCCNC(=O)C1CCN(c2nc(C)cc(C)n2)CC1,0.711,"1.16 µM [falling, full curve, poor fit]",
O=C(CC1CCCCC1)NCc1nc(-c2ccccc2)no1,17.4,"13 µM [falling, partial curve, poor fit]",
CCOC(=O)c1ccc(N2C(=O)C(O)=C(C(C)=O)C2c2ccc([N+](=O)[O-])cc2)cc1 (stereo not drawn),0.275,,
COCCN(C(=O)CSc1nnc(Nc2ccc(C)cc2)s1)c1c(N)n(CC(C)C)c(=O)[nH]c1=O,,"23.1 µM [rising, single point]",
CCOC(=O)c1ccc(NC(=O)C(C)Sc2nc(O)c(-c3ccccc3)c(=O)[nH]2)cc1 (stereo not drawn),-33.3,"29.1 µM [falling, single point]","29.1 µM [falling, single point]"
COc1ccc(N2CCN(C(=O)c3cn(C4CCCC4)c(=O)c4c3c3ccccc3n4C)CC2)cc1,-1.87,"1.84 µM [rising, partial curve]",
CN1CCN(CC(=O)Nc2c(C(=O)C3CC3)oc3ccccc23)CC1,-1.96,,
N#CCCn1c(SCC(=O)NCCc2ccc(F)cc2)nc2ccccc21,21,"7.31 µM [rising, partial curve, poor fit]","6.51 µM [falling, single point]"
CCCCn1c(N)c(N(CCOC)C(=O)c2c(-c3ccccc3)noc2C)c(=O)[nH]c1=O,-26.3,"0.58 µM [falling, full curve]",
O=C(Nc1ccc2ccccc2c1)c1cc(F)c(F)cc1Cl,1.57,"18.4 µM [falling, single point]",
Cc1cccc([C@@H]2[C@@H]3C(=O)N(Cc4ccccc4)C(=O)[C@@H]3[C@]3(C)C(=O)N(c4ccc(C(F)(F)F)cc4)C(=O)N23)c1,77.2,,"25.9 µM [rising, single point]"
COC(=O)c1c(C(=O)OC)c(-c2ccc(OC)cc2)n2c1CCC2,15.7,"4.61 µM [rising, full curve]",
Cc1ccc2[nH]cc(CCNC(=O)CN3C(=O)c4ccccc4C3=O)c2c1,36.4,"1.46 µM [rising, partial curve]","6.51 µM [rising, partial curve, poor fit]"
COC(=O)[C@@H](NC(=O)c1ccc2c(c1)S(=O)(=O)c1ccccc1C2=O)C(C)C,-5.46,"29.1 µM [falling, single point]",
Cc1ccc(S(=O)(=O)n2nnc3ccccc32)c(C)c1C,22.7,"0.00461 µM [rising, full curve]",

# — PubChem BioAssay AID2685 (National Center for Advancing Translational Sciences (NCATS), 2010)
